In assay [1] the target is T1, GST tagged-SifA (Salmonella enterica serovar typhimurium) (UniProt Q56061).
T1 sequence: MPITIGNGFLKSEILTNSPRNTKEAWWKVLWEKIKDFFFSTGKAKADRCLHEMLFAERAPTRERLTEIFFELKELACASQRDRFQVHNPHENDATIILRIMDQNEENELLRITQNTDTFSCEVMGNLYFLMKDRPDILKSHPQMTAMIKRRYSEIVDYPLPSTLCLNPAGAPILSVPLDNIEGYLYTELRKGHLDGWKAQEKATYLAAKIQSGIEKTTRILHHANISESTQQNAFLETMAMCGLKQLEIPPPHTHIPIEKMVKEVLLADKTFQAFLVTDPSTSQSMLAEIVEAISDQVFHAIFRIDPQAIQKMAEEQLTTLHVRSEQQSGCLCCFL
Briefly: pull-down; GST or GST tagged-SifA on glutathione resin (blocked with 5% BSA) incubated with lysates of transfected HEK293T cells in TAP lysis buffer, 4°C, 3 hr; four washes in TAP wash buffer; immunoblot; lysates with HA-Vps39 alone or with FLAG-SKIP or FLAG-PLEKHM1; only the target purified.

Chains of the proteins cited; added tags and fusions are not shown.
UniProt Q9Y4G2: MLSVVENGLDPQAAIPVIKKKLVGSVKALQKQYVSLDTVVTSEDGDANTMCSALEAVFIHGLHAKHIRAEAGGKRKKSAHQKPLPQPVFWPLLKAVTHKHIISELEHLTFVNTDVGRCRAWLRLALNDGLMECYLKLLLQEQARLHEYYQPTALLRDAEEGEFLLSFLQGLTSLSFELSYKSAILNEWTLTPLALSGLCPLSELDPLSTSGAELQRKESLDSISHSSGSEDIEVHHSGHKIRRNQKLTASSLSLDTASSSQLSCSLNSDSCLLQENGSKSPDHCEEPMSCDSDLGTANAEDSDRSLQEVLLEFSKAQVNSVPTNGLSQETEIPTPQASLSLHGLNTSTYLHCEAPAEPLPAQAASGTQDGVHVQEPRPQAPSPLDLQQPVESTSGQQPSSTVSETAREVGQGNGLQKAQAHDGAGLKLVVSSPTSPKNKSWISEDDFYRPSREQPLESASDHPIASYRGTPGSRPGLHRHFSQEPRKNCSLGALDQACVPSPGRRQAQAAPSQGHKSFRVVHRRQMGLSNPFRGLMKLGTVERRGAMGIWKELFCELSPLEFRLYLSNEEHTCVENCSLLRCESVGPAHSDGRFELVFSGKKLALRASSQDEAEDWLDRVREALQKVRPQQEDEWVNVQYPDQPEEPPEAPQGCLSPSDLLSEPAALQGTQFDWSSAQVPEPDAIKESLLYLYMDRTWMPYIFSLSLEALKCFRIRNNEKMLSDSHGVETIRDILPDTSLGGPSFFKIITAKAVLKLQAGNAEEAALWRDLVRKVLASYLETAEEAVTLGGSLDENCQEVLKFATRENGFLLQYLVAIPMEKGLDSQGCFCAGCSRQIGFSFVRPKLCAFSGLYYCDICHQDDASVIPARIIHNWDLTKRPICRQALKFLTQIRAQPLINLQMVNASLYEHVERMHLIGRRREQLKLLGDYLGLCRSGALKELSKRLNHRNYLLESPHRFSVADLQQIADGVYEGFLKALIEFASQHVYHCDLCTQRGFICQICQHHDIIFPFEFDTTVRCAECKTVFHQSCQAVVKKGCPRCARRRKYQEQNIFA

Assay [2] has as its target T2, pGBKT7-SifA (Salmonella enterica serovar typhimurium) (UniProt Q56061).
T2 sequence: T1 sequence
Description: two-hybrid; S. cerevisiae AH109; SifA as bait (GAL4-BD), SKIP and PLEKHM1 as prey (GAL4-AD); growth curve in SD-L/-W/-H broth at 30°C, monitored every 4 hr for 48 hr.

These are yes or no findings as the source states them, for the method shown. For some of these results: Binding seen in cells or lysates may run through a third protein. Some binding calls cover weakened binding; strength is not graded here. For some of these results: Tags and fused reporters may be left off the sequences shown.

Regarding “FLAG-PLEKHM1 (from UniProt Q9Y4G2 1-1056)”, the binding entry in assay [1] is “binds”.
For “pGADT7-PLEKHM1 (from UniProt Q9Y4G2 1-1056)”, the binding result in assay [2] is “binds”.

B1: pGADT7-SKIP (protein, UniProt Q8IWE5 1-1019)
chain: MEPGEVKDRILENISLSVKKLQSYFAACEDEIPAIRNHDKVLQRLCEHLDHALLYGLQDLSSGYWVLVVHFTRREAIKQIEVLQHVATNLGRSRAWLYLALNENSLESYLRLFQENLGLLHKYYVKNALVCSHDHLTLFLTLVSGLEFIRFELDLDAPYLDLAPYMPDYYKPQYLLDFEDRLPSSVHGSDSLSLNSFNSVTSTNLEWDDSAIAPSSEDYDFGDVFPAVPSVPSTDWEDGDLTDTVSGPRSTASDLTSSKASTRSPTQRQNPFNEEPAETVSSSDTTPVHTTSQEKEEAQALDPPDACTELEVIRVTKKKKIGKKKKSRSDEEASPLHPACSQKKCAKQGDGDSRNGSPSLGRDSPDTMLASPQEEGEGPSSTTESSERSEPGLLIPEMKDTSMERLGQPLSKVIDQLNGQLDPSTWCSRAEPPDQSFRTGSPGDAPERPPLCDFSEGLSAPMDFYRFTVESPSTVTSGGGHHDPAGLGQPLHVPSSPEAAGQEEEGGGGEGQTPRPLEDTTREAQELEAQLSLVREGPVSEPEPGTQEVLCQLKRDQPSPCLSSAEDSGVDEGQGSPSEMVHSSEFRVDNNHLLLLMIHVFRENEEQLFKMIRMSTGHMEGNLQLLYVLLTDCYVYLLRKGATEKPYLVEEAVSYNELDYVSVGLDQQTVKLVCTNRRKQFLLDTADVALAEFFLASLKSAMIKGCREPPYPSILTDATMEKLALAKFVAQESKCEASAVTVRFYGLVHWEDPTDESLGPTPCHCSPPEGTITKEGMLHYKAGTSYLGKEHWKTCFVVLSNGILYQYPDRTDVIPLLSVNMGGEQCGGCRRANTTDRPHAFQVILSDRPCLELSAESEAEMAEWMQHLCQAVSKGVIPQGVAPSPCIPCCLVLTDDRLFTCHEDCQTSFFRSLGTAKLGDISAVSTEPGKEYCVLEFSQDSQQLLPPWVIYLSCTSELDRLLSALNSGWKTIYQVDLPHTAIQEASNKKKFEDALSLIHSAWQRSDSLCRGRASRDPWC
B1: the binding result in assay [2] was “binds”.

B2: FLAG-SKIP (protein, UniProt Q8IWE5 1-1019)
chain: B1 chain
As to B2, the binding result in assay [1] is “binds”.

Values taken from article PMC5679646.
